Laboratory results: PubChem BioAssay AID1259308 (NCATS, 2017)
In all, the deposit lists about 59,000 reagents; shown is an unselected part. About 1,510 of them (2.6%) count as active. 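Calls use total luciferase alone and ignore viability, so some active siRNAs may act by altering cell number.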 Unmarked entries are inactive. Reagents against one gene are numbered here. Further read-outs or replicates are left out here.

Purpose: 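Knock-downs that increase output of a recombinant reporter protein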 (primary screen)
Cell system: human HEK293 embryonic kidney cells stably expressing firefly luciferase (HEK-CMV-Luc2-Hygro)
Knock-down reagent: single siRNA against human genes, 0.8 pmol siRNA per well
Duration: 72 h
Detection: 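Reporter luminescence and viable-cell signal on separate replicate plates, given as percent of non-targeting control and median/MAD z-scores, plus per-cell luciferase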
Direction: total luciferase, z-score: higher = more reporter protein produced
Rule for the call: 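An siRNA counts as active if its total luciferase robust z-score exceeds 3; genes with two or more such siRNAs out of three were retested with fresh siRNAs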
Meaning of the calls: active = raised luciferase; inactive = no rise

How did the screen score RAB7A (RAB7A, member RAS oncogene family) #1?
total luciferase, z-score: 0.0596

With RAB7A (RAB7A, member RAS oncogene family) #2, what was measured?
total luciferase, z-score: 0.662

What did the screen give for RAB7A (RAB7A, member RAS oncogene family) #3?
total luciferase, z-score: 2.44

With OTUD5 (OTU deubiquitinase 5) #1, what was measured?
total luciferase, z-score: 0.301

What did the screen give for OTUD5 (OTU deubiquitinase 5) #2?
total luciferase, z-score: -0.816

What did the screen give for OTUD5 (OTU deubiquitinase 5) #3?
total luciferase, z-score: -1.67

What did the screen give for SGSM1 (small G protein signaling modulator 1) #1?
total luciferase, z-score: 0.374

How did the screen score SGSM1 (small G protein signaling modulator 1) #2?
total luciferase, z-score: 0.79

How did the screen score SGSM1 (small G protein signaling modulator 1) #3?
total luciferase, z-score: 0.285

With SLFN5 (schlafen family member 5) #1, what was measured?
total luciferase, z-score: -0.282

For SLFN5 (schlafen family member 5) #2, what does the deposit list?
total luciferase, z-score: 0.315

What is on record for SLFN5 (schlafen family member 5) #3?
total luciferase, z-score: 1.01

3 of these entries in another layout:
{"Gene": "OTUD5 (OTU deubiquitinase 5)", "reagent": 3, "total luciferase, z-score": -1.67}
{"Gene": "SGSM1 (small G protein signaling modulator 1)", "reagent": 1, "total luciferase, z-score": 0.374}
{"Gene": "SGSM1 (small G protein signaling modulator 1)", "reagent": 2, "total luciferase, z-score": 0.79}

The results go on:
For IL2RG (interleukin 2 receptor subunit gamma) #1, what does the deposit list?
total luciferase, z-score: -0.433

How did the screen score IL2RG (interleukin 2 receptor subunit gamma) #2?
total luciferase, z-score: -0.582

With IL2RG (interleukin 2 receptor subunit gamma) #3, how do the results read?
total luciferase, z-score: 0.373

With PHF23 (PHD finger protein 23) #1, how do the results read?
total luciferase, z-score: 0.246

What is on record for PHF23 (PHD finger protein 23) #2?
total luciferase, z-score: -0.851

What did the screen give for PHF23 (PHD finger protein 23) #3?
total luciferase, z-score: 0.352

What did the screen give for PSAT1 (phosphoserine aminotransferase 1) #1?
total luciferase, z-score: -0.637

How did the screen score PSAT1 (phosphoserine aminotransferase 1) #2?
total luciferase, z-score: -0.744

For PSAT1 (phosphoserine aminotransferase 1) #3, how do the results read?
total luciferase, z-score: 0.0971

With NDRG2 (NDRG family member 2) #1, what was measured?
total luciferase, z-score: -1.57

What did the screen give for NDRG2 (NDRG family member 2) #2?
total luciferase, z-score: -0.393

For NDRG2 (NDRG family member 2) #3, what does the deposit list?
total luciferase, z-score: 0.715

For C10orf62 (chromosome 10 open reading frame 62) #1, what was measured?
total luciferase, z-score: -0.756

How did the screen score C10orf62 (chromosome 10 open reading frame 62) #2?
total luciferase, z-score: -0.793

What is on record for C10orf62 (chromosome 10 open reading frame 62) #3?
total luciferase, z-score: 0.554

With PNCK (pregnancy up-regulated nonubiquitous CaM kinase) #1, what does the deposit list?
total luciferase, z-score: 2.11

With PNCK (pregnancy up-regulated nonubiquitous CaM kinase) #2, what does the deposit list?
total luciferase, z-score: 0.432

Which result is listed for PNCK (pregnancy up-regulated nonubiquitous CaM kinase) #3?
total luciferase, z-score: 0.584

How did the screen score FAT2 (FAT atypical cadherin 2) #1?
total luciferase, z-score: -0.0628

What is on record for FAT2 (FAT atypical cadherin 2) #2?
total luciferase, z-score: -0.852

With FAT2 (FAT atypical cadherin 2) #3, what does the deposit list?
total luciferase, z-score: 0.115
